Publication PMC8750551
Results are given in words; binding and its absence hold for the method and conditions named. Binding seen in cells or lysates may run through a third protein. Here binding means that the protein was enriched with, or labelled near, the bait; the list need not be complete.

The chains behind the UniProt entries cited, without tags or fusion partners.
UniProt Q9BYV9: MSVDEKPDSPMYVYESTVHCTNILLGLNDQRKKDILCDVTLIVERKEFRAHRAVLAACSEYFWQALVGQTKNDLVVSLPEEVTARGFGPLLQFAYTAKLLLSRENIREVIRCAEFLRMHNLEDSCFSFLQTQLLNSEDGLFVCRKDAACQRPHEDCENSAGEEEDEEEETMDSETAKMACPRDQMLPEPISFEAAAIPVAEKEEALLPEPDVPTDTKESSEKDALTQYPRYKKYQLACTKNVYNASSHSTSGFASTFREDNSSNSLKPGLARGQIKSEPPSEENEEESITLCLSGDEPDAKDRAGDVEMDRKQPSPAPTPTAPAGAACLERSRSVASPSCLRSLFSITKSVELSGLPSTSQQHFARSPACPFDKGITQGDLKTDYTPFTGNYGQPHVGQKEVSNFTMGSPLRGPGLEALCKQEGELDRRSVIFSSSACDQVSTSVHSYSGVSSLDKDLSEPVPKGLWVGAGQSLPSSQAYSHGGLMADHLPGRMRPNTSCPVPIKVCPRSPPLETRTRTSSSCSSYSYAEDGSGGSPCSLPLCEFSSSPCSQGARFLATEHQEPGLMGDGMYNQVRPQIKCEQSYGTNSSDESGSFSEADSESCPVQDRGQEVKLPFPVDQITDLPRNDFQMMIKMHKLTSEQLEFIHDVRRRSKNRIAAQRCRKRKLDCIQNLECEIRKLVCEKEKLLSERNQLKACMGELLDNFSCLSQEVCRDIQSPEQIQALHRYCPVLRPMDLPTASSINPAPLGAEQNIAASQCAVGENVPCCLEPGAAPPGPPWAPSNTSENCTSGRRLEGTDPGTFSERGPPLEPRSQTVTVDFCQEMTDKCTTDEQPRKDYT

B1: RETSAT (protein, UniProt Q6NUM9 19-610)
chain: KVYLGLFSGSSPNPFSEDVKRPPAPLVTDKEARKKVLKQAFSANQVPEKLDVVVIGSGFGGLAAAAILAKAGKRVLVLEQHTKAGGCCHTFGKNGLEFDTGIHYIGRMEEGSIGRFILDQITEGQLDWAPLSSPFDIMVLEGPNGRKEYPMYSGEKAYIQGLKEKFPQEEAIIDKYIKLVKVVSSGAPHAILLKFLPLPVVQLLDRCGLLTRFSPFLQASTQSLAEVLQQLGASSELQAVLSYIFPTYGVTPNHSAFSMHALLVNHYMKGGFYPRGGSSEIAFHTIPVIQRAGGAVLTKATVQSVLLDSAGKACGVSVKKGHELVNIYCPIVVSNAGLFNTYEHLLPGNARCLPGVKQQLGTVRPGLGMTSVFICLRGTKEDLHLPSTNYYVYYDTDMDQAMERYVSMPREEAAEHIPLLFFAFPSAKDPTWEDRFPGRSTMIMLIPTAYEWFEEWQAELKGKRGSDYETFKNSFVEASMSVVLKLFPQLEGKVESVTAGSPLTNQFYLAAPRGACYGADHDLGRLHPCVMASLRAQSPIPNLYLTGQDIFTCGLVGALQGALLCSSAILKRNLYSDLKNLDSRIRAQKKKN
B2: SFXN1 (protein, UniProt Q9H9B4 1-322)
chain: MSGELPPNINIKEPRWDQSTFIGRANHFFTVTDPRNILLTNEQLESARKIVHDYRQGIVPPGLTENELWRAKYIYDSAFHPDTGEKMILIGRMSAQVPMNMTITGCMMTFYRTTPAVLFWQWINQSFNAVVNYTNRSGDAPLTVNELGTAYVSATTGAVATALGLNALTKHVSPLIGRFVPFAAVAAANCINIPLMRQRELKVGIPVTDENGNRLGESANAAKQAITQVVVSRILMAAPGMAIPPFIMNTLEKKAFLKRFPWMSAPIQVGLVGFCLVFATPLCCALFPQKSSMSVTSLEAELQAKIQESHPELRRVYFNKGL
B3: TCOF1 (treacle ribosome biogenesis factor 1) (protein, UniProt Q13428 1-1488)
chain: MAEARKRRELLPLIYHHLLRAGYVRAAREVKEQSGQKCFLAQPVTLLDIYTHWQQTSELGRKRKAEEDAALQAKKTRVSDPISTSESSEEEEEAEAETAKATPRLASTNSSVLGADLPSSMKEKAKAETEKAGKTGNSMPHPATGKTVANLLSGKSPRKSAEPSANTTLVSETEEEGSVPAFGAAAKPGMVSAGQADSSSEDTSSSSDETDVEGKPSVKPAQVKASSVSTKESPARKAAPAPGKVGDVTPQVKGGALPPAKRAKKPEEESESSEEGSESEEEAPAGTRSQVKASEKILQVRAASAPAKGTPGKGATPAPPGKAGAVASQTKAGKPEEDSESSSEESSDSEEETPAAKALLQAKASGKTSQVGAASAPAKESPRKGAAPAPPGKTGPAVAKAQAGKREEDSQSSSEESDSEEEAPAQAKPSGKAPQVRAASAPAKESPRKGAAPAPPRKTGPAAAQVQVGKQEEDSRSSSEESDSDREALAAMNAAQVKPLGKSPQVKPASTMGMGPLGKGAGPVPPGKVGPATPSAQVGKWEEDSESSSEESSDSSDGEVPTAVAPAQEKSLGNILQAKPTSSPAKGPPQKAGPVAVQVKAEKPMDNSESSEESSDSADSEEAPAAMTAAQAKPALKIPQTKACPKKTNTTASAKVAPVRVGTQAPRKAGTATSPAGSSPAVAGGTQRPAEDSSSSEESDSEEEKTGLAVTVGQAKSVGKGLQVKAASVPVKGSLGQGTAPVLPGKTGPTVTQVKAEKQEDSESSEEESDSEEAAASPAQVKTSVKKTQAKANPAAARAPSAKGTISAPGKVVTAAAQAKQRSPSKVKPPVRNPQNSTVLARGPASVPSVGKAVATAAQAQTGPEEDSGSSEEESDSEEEAETLAQVKPSGKTHQIRAALAPAKESPRKGAAPTPPGKTGPSAAQAGKQDDSGSSSEESDSDGEAPAAVTSAQVIKPPLIFVDPNRSPAGPAATPAQAQAASTPRKARASESTARSSSSESEDEDVIPATQCLTPGIRTNVVTMPTAHPRIAPKASMAGASSSKESSRISDGKKQEGPATQVSKKNPASLPLTQAALKVLAQKASEAQPPVARTQPSSGVDSAVGTLPATSPQSTSVQAKGTNKLRKPKLPEVQQATKAPESSDDSEDSSDSSSGSEEDGEGPQGAKSAHTLGPTPSRTETLVEETAAESSEDDVVAPSQSLLSGYMTPGLTPANSQASKATPKLDSSPSVSSTLAAKDDPDGKQEAKPQQAAGMLSPKTGGKEAASGTTPQKSRKPKKGAGNPQASTLALQSNITQCLLGQPWPLNEAQVQASVVKVLTELLEQERKKVVDTTKESSRKGWESRKRKLSGDQPAARTPRSKKKKKLGAGEGGEASVSPEKTSTTSKGKAKRDKASGDVKEKKGKGSLGSQGAKDEPEEELQKGMGTVEGGDQSNPKSKKEKKKSDKRKKDKEKKEKKKKAKKASTKDSESPSQKKKKKKKKTAEQTV
B4: RRBP1 (protein, UniProt Q9P2E9 1-1410)
chain: MDIYDTQTLGVVVFGGFMVVSAIGIFLVSTFSMKETSYEEALANQRKEMAKTHHQKVEKKKKEKTVEKKGKTKKKEEKPNGKIPDHDPAPNVTVLLREPVRAPAVAVAPTPVQPPIIVAPVATVPAMPQEKLASSPKDKKKKEKKVAKVEPAVSSVVNSIQVLTSKAAILETAPKEVPMVVVPPVGAKGNTPATGTTQGKKAEGTQNQSKKAEGAPNQGRKAEGTPNQGKKTEGTPNQGKKAEGTPNQGKKAEGTPNQGKKAEGAQNQGKKVDTTPNQGKKVEGAPTQGRKAEGAQNQAKKVEGAQNQGKKAEGAQNQGKKGEGAQNQGKKAEGAQNQGKKAEGAQNQGKKAEGAQNQGKKAEGAQNQGKKAEGAQNQGKKAEGAQNQGKKVEGAQNQGKKAEGAQNQGKKAEGAQNQGKKAEGAQNQGKKAEGAQNQGKKAEGAQNQGKKAEGAQNQGKKAEGAQNQGKKVEGAQNQGKKAEGAQNQGKKAEGAQNQGKKAEGAQNQGQKGEGAQNQGKKTEGAQGKKAERSPNQGKKGEGAPIQGKKADSVANQGTKVEGITNQGKKAEGSPSEGKKAEGSPNQGKKADAAANQGKKTESASVQGRNTDVAQSPEAPKQEAPAKKKSGSKKKGEPGPPDADGPLYLPYKTLVSTVGSMVFNEGEAQRLIEILSEKAGIIQDTWHKATQKGDPVAILKRQLEEKEKLLATEQEDAAVAKSKLRELNKEMAAEKAKAAAGEAKVKKQLVAREQEITAVQARMQASYREHVKEVQQLQGKIRTLQEQLENGPNTQLARLQQENSILRDALNQATSQVESKQNAELAKLRQELSKVSKELVEKSEAVRQDEQQRKALEAKAAAFEKQVLQLQASHRESEEALQKRLDEVSRELCHTQSSHASLRADAEKAQEQQQQMAELHSKLQSSEAEVRSKCEELSGLHGQLQEARAENSQLTERIRSIEALLEAGQARDAQDVQASQAEADQQQTRLKELESQVSGLEKEAIELREAVEQQKVKNNDLREKNWKAMEALATAEQACKEKLLSLTQAKEESEKQLCLIEAQTMEALLALLPELSVLAQQNYTEWLQDLKEKGPTLLKHPPAPAEPSSDLASKLREAEETQSTLQAECDQYRSILAETEGMLRDLQKSVEEEEQVWRAKVGAAEEELQKSRVTVKHLEEIVEKLKGELESSDQVREHTSHLEAELEKHMAAASAECQNYAKEVAGLRQLLLESQSQLDAAKSEAQKQSDELALVRQQLSEMKSHVEDGDIAGAPASSPEAPPAEQDPVQLKTQLEWTEAILEDEQTQRQKLTAEFEEAQTSACRLQEELEKLRTAGPLESSETEEASQLKERLEKEKKLTSDLGRAATRLQELLKTTQEQLAREKDTVKKLQEQLEKAEDGSSSKEGTSV
B5: USP48 (protein, UniProt Q86UV5 1-1035)
chain: MAPRLQLEKAAWRWAETVRPEEVSQEHIETAYRIWLEPCIRGVCRRNCKGNPNCLVGIGEHIWLGEIDENSFHNIDDPNCERRKKNSFVGLTNLGATCYVNTFLQVWFLNLELRQALYLCPSTCSDYMLGDGIQEEKDYEPQTICEHLQYLFALLQNSNRRYIDPSGFVKALGLDTGQQQDAQEFSKLFMSLLEDTLSKQKNPDVRNIVQQQFCGEYAYVTVCNQCGRESKLLSKFYELELNIQGHKQLTDCISEFLKEEKLEGDNRYFCENCQSKQNATRKIRLLSLPCTLNLQLMRFVFDRQTGHKKKLNTYIGFSEILDMEPYVEHKGGSYVYELSAVLIHRGVSAYSGHYIAHVKDPQSGEWYKFNDEDIEKMEGKKLQLGIEEDLAEPSKSQTRKPKCGKGTHCSRNAYMLVYRLQTQEKPNTTVQVPAFLQELVDRDNSKFEEWCIEMAEMRKQSVDKGKAKHEEVKELYQRLPAGAEPYEFVSLEWLQKWLDESTPTKPIDNHACLCSHDKLHPDKISIMKRISEYAADIFYSRYGGGPRLTVKALCKECVVERCRILRLKNQLNEDYKTVNNLLKAAVKGSDGFWVGKSSLRSWRQLALEQLDEQDGDAEQSNGKMNGSTLNKDESKEERKEEEELNFNEDILCPHGELCISENERRLVSKEAWSKLQQYFPKAPEFPSYKECCSQCKILEREGEENEALHKMIANEQKTSLPNLFQDKNRPCLSNWPEDTDVLYIVSQFFVEEWRKFVRKPTRCSPVSSVGNSALLCPHGGLMFTFASMTKEDSKLIALIWPSEWQMIQKLFVVDHVIKITRIEVGDVNPSETQYISEPKLCPECREGLLCQQQRDLREYTQATIYVHKVVDNKKVMKDSAPELNVSSSETEEDKEEAKPDGEKDPDFNQSNGGTKRQKISHQNYIAYQKQVIRRSMRHRKVRGEKALLVSANQTLKELKIQIMHAFSVAPFDQNLSIDGKILSDDCATLGTLGVIPESVILLKADEPIADYAAMDDVMQVCMPEEGFKGTGLLGH
B6: ARHGD1B (protein, UniProt P52566 1-201)
chain: MTEKAPEPHVEEDDDDELDSKLNYKPPPQKSLKELQEMDKDDESLIKYKKTLLGDGPVVTDPKAPNVVVTRLTLVCESAPGPITMDLTGDLEALKKETIVLKEGSEYRVKIHFKVNRDIVSGLKYVQHTYRTGVKVDKATFMVGSYGPRPEEYEFLTPVEEAPKGMLARGTYHNKSFFTDDDKQDHLSWEWNLSIKKEWTE
B7: SART3 (protein, UniProt Q15020 1-963)
chain: MATAAETSASEPEAESKAGPKADGEEDEVKAARTRRKVLSRAVAAATYKTMGPAWDQQEEGVSESDGDEYAMASSAESSPGEYEWEYDEEEEKNQLEIERLEEQLSINVYDYNCHVDLIRLLRLEGELTKVRMARQKMSEIFPLTEELWLEWLHDEISMAQDGLDREHVYDLFEKAVKDYICPNIWLEYGQYSVGGIGQKGGLEKVRSVFERALSSVGLHMTKGLALWEAYREFESAIVEAARLEKVHSLFRRQLAIPLYDMEATFAEYEEWSEDPIPESVIQNYNKALQQLEKYKPYEEALLQAEAPRLAEYQAYIDFEMKIGDPARIQLIFERALVENCLVPDLWIRYSQYLDRQLKVKDLVLSVHNRAIRNCPWTVALWSRYLLAMERHGVDHQVISVTFEKALNAGFIQATDYVEIWQAYLDYLRRRVDFKQDSSKELEELRAAFTRALEYLKQEVEERFNESGDPSCVIMQNWARIEARLCNNMQKARELWDSIMTRGNAKYANMWLEYYNLERAHGDTQHCRKALHRAVQCTSDYPEHVCEVLLTMERTEGSLEDWDIAVQKTETRLARVNEQRMKAAEKEAALVQQEEEKAEQRKRARAEKKALKKKKKIRGPEKRGADEDDEKEWGDDEEEQPSKRRRVENSIPAAGETQNVEVAAGPAGKCAAVDVEPPSKQKEKAASLKRDMPKVLHDSSKDSITVFVSNLPYSMQEPDTKLRPLFEACGEVVQIRPIFSNRGDFRGYCYVEFKEEKSALQALEMDRKSVEGRPMFVSPCVDKSKNPDFKVFRYSTSLEKHKLFISGLPFSCTKEELEEICKAHGTVKDLRLVTNRAGKPKGLAYVEYENESQASQAVMKMDGMTIKENIIKVAISNPPQRKVPEKPETRKAPGGPMLLPQTYGARGKGRTQLSLLPRALQRPSAAAPQAENGPAAAPAVAAPAATEAPKMSNADFAKLFLRK

Biological target: BACH2 (BTB and CNC homology 1, basic leucine zipper transcription factor 2) (human (endogenous in MEC-1)) (UniProt Q9BYV9)
Experiment: affinity purification with mass spectrometry; reciprocal co-immunoprecipitation with anti-BACH2 or anti-BCL6 from MEC-1 CLL cells, followed by Orbitrap mass spectrometry

binding, binds:
B1, B2, B3, B4, B5, B6, B7
